Source: PMC5892894

T1: FlaA2, bacterial two-hybrid fusion (L. biflexa) (UniProt B0SKT5)
T1 sequence: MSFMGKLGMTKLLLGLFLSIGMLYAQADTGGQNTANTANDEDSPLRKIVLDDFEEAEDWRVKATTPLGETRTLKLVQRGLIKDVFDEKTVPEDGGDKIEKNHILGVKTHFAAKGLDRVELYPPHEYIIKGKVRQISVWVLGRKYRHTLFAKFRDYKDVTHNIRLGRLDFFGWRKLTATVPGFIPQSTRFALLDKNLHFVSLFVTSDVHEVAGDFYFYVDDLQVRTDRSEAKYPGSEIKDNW


Tests used:
[1] = target: T1, FlaA2, bacterial two-hybrid fusion (L. biflexa); assay: two-hybrid; BacterioMatch II bacterial two-hybrid in E. coli XL1-Blue MRF′; bait in pBT, prey in pTRG; growth on M9 medium with 5 mM 3-AT and then 3-AT plus streptomycin
[2] = target: FcpA, bacterial two-hybrid fusion (L. biflexa); assay: as above

Row | Molecule | binding [1] | binding [2]
1 | FcpA, bacterial two-hybrid fusion (L. biflexa) | binds | –
2 | FlaA2, bacterial two-hybrid fusion (protein, UniProt B0SKT5 1-241) MSFMGKLGMTKLLLGLFLSIGMLYAQADTGGQNTANTANDEDSPLRKIVLDDFEEAEDWRVKATTPLGETRTLKLVQRGLIKDVFDEKTVPEDGGDKIEKNHILGVKTHFAAKGLDRVELYPPHEYIIKGKVRQISVWVLGRKYRHTLFAKFRDYKDVTHNIRLGRLDFFGWRKLTATVPGFIPQSTRFALLDKNLHFVSLFVTSDVHEVAGDFYFYVDDLQVRTDRSEAKYPGSEIKDNW | – | binds
3 | FlaA2 aa155-238 region, bacterial two-hybrid fusion (domain or fragment, UniProt B0SKT5 155-238) YKDVTHNIRLGRLDFFGWRKLTATVPGFIPQSTRFALLDKNLHFVSLFVTSDVHEVAGDFYFYVDDLQVRTDRSEAKYPGSEIK | – | binds

These are yes or no findings as the source states them, for the method shown. A result given as binding can be weak or reduced; the word gives no strength. Tags and fused reporters may be left off the sequences shown.
